Test results from US20240240209A1, “SYNTHESIS OF ENANTIOPURE CIS-A-IRONE FROM A RENEWABLE CARBON SOURCE” (Agency for Science, Technology and Research, priority 2021, published 2024).

Experiment: HS-SPME-GC-olfactory analysis of irone isomers
Settings: HS-SPME-GCO

Row | Structure (SMILES) | olfactory property (aroma detected)
1 | CC(=O)/C=C/[C@@H]1C(C)=CC[C@@H](C)C1(C)C (relative stereo) [trans-α-irone] | does not have any olfactory properties
2 | CC(=O)/C=C/[C@@H]1C(C)=CC[C@H](C)C1(C)C (relative stereo) [cis-α-irone] | has olfactory properties
